Experimental data as given in PMC12359834.
No constants are given. Whether binding was seen depends on the method and setting. Binding seen in cells or lysates may run through a third protein. Some entries that bind do so weakly or less than the wild type. Values belong to the binder of their own block, whether it stands above or below them.

Chains of the proteins cited; added tags and fusions are not shown.
UniProt P14598: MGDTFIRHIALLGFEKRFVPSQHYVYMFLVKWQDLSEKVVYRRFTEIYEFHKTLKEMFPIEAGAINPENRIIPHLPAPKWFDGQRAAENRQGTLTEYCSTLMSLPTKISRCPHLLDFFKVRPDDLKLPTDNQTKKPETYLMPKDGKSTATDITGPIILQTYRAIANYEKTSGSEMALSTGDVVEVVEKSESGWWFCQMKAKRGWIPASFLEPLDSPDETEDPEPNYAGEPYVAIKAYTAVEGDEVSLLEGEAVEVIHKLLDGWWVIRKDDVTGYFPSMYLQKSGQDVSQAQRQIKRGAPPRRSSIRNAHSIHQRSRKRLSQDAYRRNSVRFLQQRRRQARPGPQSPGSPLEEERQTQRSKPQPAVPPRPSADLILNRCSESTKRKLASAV

Assays:
[1] = biological target: p47phox (human (endogenous in HAEC)) (UniProt P14598); experiment: co-IP; endogenous proteins in HAEC transfected with control siRNA or AIP1 siRNA, untreated or TNFalpha (10 ng/ml) for 15 min; co-immunoprecipitation followed by Western blot
[2] = biological target: p47phox (human (endogenous in HAEC)) (UniProt P14598); experiment: co-IP; HAEC infected with lentivirus with empty vector, AIP1-F or a truncate, untreated or TNFalpha (10 ng/ml for 15 min); lysates immunoprecipitated with anti-p47phox, Western blot with anti-NOX2

binding [1]: binds
B1: AIP1 (protein, UniProt Q5VWQ8 1-1189)
chain: MSAGGSARKSTGRSSYYYRLLRRPRLQRQRSRSRSRTRPARESPQERPGSRRSLPGSLSEKSPSMEPSAATPFRVTGFLSRRLKGSIKRTKSQPKLDRNHSFRHILPGFRSAAAAAADNERSHLMPRLKESRSHESLLSPSSAVEALDLSMEEEVVIKPVHSSILGQDYCFEVTTSSGSKCFSCRSAAERDKWMENLRRAVHPNKDNSRRVEHILKLWVIEAKDLPAKKKYLCELCLDDVLYARTTGKLKTDNVFWGEHFEFHNLPPLRTVTVHLYRETDKKKKKERNSYLGLVSLPAASVAGRQFVEKWYPVVTPNPKGGKGPGPMIRIKARYQTITILPMEMYKEFAEHITNHYLGLCAALEPILSAKTKEEMASALVHILQSTGKVKDFLTDLMMSEVDRCGDNEHLIFRENTLATKAIEEYLKLVGQKYLQDALGEFIKALYESDENCEVDPSKCSAADLPEHQGNLKMCCELAFCKIINSYCVFPRELKEVFASWRQECSSRGRPDISERLISASLFLRFLCPAIMSPSLFNLLQEYPDDRTARTLTLIAKVTQNLANFAKFGSKEEYMSFMNQFLEHEWTNMQRFLLEISNPETLSNTAGFEGYIDLGRELSSLHSLLWEAVSQLEQSIVSKLGPLPRILRDVHTALSTPGSGQLPGTNDLASTPGSGSSSISAGLQKMVIENDLSGLIDFTRLPSPTPENKDLFFVTRSSGVQPSPARSSSYSEANEPDLQMANGGKSLSMVDLQDARTLDGEAGSPAGPDVLPTDGQAAAAQLVAGWPARATPVNLAGLATVRRAGQTPTTPGTSEGAPGRPQLLAPLSFQNPVYQMAAGLPLSPRGLGDSGSEGHSSLSSHSNSEELAAAAKLGSFSTAAEELARRPGELARRQMSLTEKGGQPTVPRQNSAGPQRRIDQPPPPPPPPPPAPRGRTPPNLLSTLQYPRPSSGTLASASPDWVGPSTRLRQQSSSSKGDSPELKPRAVHKQGPSPVSPNALDRTAAWLLTMNAQLLEDEGLGPDPPHRDRLRSKDELSQAEKDLAVLQDKLRISTKKLEEYETLFKCQEETTQKLVLEYQARLEEGEERLRRQQEDKDIQMKGIISRLMSVEEELKKDHAEMQAAVDSKQKIIDAQEKRIASLDAANARLMSALTQLKERYSMQARNGISPTNPTKLQITENGEFRNSSNC

binding [2]: binds
B2: AIP1-F (protein, UniProt Q5VWQ8 1-1189)
chain: B1 chain

binding [2]: binds
B3: NOX2 (protein, UniProt P04839 1-570)
chain: MGNWAVNEGLSIFVILVWLGLNVFLFVWYYRVYDIPPKFFYTRKLLGSALALARAPAACLNFNCMLILLPVCRNLLSFLRGSSACCSTRVRRQLDRNLTFHKMVAWMIALHSAIHTIAHLFNVEWCVNARVNNSDPYSVALSELGDRQNESYLNFARKRIKNPEGGLYLAVTLLAGITGVVITLCLILIITSSTKTIRRSYFEVFWYTHHLFVIFFIGLAIHGAERIVRGQTAESLAVHNITVCEQKISEWGKIKECPIPQFAGNPPMTWKWIVGPMFLYLCERLVRFWRSQQKVVITKVVTHPFKTIELQMKKKGFKMEVGQYIFVKCPKVSKLEWHPFTLTSAPEEDFFSIHIRIVGDWTEGLFNACGCDKQEFQDAWKLPKIAVDGPFGTASEDVFSYEVVMLVGAGIGVTPFASILKSVWYKYCNNATNLKLKKIYFYWLCRDTHAFEWFADLLQLLESQMQERNNAGFLSYNIYLTGWDESQANHFAVHHDEEKDVITGLKQKTLYGRPNWDNEFKTIASQHPNTRIGVFLCGPEALAETLSKQSISNSESGPRGVHFIFNKENF
